Assay results: paper doi:10.1101/2021.03.19.436211 (bioRxiv, 2021)
These are yes or no findings as the source states them, for the method shown. In cells and extracts the contact can be indirect. Some binding calls cover weakened binding; strength is not graded here. Sequences can lack the tags named with a protein.

T1: ΔM-Lip^xtal-V5 (mouse lipin 1α Δ458-548 with C-terminal V5-His tag) (mouse) (UniProt Q91ZP3)
T1 sequence: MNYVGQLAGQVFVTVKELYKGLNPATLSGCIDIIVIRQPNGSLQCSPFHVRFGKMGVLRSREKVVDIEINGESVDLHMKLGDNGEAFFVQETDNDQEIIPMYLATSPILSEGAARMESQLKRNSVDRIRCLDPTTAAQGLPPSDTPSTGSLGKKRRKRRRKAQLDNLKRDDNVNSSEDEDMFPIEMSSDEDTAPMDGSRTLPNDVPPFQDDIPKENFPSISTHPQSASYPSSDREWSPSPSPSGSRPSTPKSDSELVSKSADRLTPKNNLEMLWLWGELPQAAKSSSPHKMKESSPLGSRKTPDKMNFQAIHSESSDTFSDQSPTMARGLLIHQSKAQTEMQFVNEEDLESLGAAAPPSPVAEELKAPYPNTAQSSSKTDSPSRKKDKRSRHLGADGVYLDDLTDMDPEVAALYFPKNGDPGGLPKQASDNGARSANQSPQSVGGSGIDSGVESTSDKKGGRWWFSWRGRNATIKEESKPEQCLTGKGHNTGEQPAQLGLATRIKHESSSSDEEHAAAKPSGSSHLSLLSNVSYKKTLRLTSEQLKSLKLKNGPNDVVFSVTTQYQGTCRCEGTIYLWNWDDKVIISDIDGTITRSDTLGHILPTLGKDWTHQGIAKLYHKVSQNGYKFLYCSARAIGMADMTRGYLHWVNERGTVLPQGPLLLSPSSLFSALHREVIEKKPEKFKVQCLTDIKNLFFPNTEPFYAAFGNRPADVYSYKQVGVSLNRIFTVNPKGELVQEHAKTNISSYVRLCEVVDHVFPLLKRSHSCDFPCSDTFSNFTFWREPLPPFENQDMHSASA

T2: wild-type lipin 1-V5 (full-length mouse lipin 1α with C-terminal V5-His tag) (mouse) (UniProt Q91ZP3)
T2 sequence: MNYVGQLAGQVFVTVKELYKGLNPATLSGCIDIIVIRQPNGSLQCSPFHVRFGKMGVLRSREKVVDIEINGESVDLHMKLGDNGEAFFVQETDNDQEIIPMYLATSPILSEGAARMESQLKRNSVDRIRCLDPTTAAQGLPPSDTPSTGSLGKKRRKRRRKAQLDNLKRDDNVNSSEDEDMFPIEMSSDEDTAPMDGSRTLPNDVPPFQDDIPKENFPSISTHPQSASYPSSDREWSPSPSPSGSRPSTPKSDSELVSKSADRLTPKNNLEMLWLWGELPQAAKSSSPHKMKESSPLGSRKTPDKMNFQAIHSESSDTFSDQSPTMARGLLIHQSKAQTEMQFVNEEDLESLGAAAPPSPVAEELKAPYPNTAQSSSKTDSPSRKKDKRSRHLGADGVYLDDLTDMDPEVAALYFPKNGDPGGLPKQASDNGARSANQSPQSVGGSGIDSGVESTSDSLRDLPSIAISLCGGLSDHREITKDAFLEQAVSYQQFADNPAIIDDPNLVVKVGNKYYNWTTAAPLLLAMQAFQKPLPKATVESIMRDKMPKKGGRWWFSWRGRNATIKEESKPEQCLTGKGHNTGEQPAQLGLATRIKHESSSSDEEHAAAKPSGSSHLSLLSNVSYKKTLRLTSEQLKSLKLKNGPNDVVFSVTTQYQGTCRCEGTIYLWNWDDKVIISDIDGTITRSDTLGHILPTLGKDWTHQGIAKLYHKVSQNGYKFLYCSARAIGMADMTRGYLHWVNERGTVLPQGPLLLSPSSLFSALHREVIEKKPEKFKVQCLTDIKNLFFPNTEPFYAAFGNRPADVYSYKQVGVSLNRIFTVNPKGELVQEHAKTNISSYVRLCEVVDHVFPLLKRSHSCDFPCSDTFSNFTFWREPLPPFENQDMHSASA

T3: ΔMLip-V5 (mouse lipin 1α Δ458-565 with C-terminal V5-His tag) (mouse) (UniProt Q91ZP3)
T3 sequence: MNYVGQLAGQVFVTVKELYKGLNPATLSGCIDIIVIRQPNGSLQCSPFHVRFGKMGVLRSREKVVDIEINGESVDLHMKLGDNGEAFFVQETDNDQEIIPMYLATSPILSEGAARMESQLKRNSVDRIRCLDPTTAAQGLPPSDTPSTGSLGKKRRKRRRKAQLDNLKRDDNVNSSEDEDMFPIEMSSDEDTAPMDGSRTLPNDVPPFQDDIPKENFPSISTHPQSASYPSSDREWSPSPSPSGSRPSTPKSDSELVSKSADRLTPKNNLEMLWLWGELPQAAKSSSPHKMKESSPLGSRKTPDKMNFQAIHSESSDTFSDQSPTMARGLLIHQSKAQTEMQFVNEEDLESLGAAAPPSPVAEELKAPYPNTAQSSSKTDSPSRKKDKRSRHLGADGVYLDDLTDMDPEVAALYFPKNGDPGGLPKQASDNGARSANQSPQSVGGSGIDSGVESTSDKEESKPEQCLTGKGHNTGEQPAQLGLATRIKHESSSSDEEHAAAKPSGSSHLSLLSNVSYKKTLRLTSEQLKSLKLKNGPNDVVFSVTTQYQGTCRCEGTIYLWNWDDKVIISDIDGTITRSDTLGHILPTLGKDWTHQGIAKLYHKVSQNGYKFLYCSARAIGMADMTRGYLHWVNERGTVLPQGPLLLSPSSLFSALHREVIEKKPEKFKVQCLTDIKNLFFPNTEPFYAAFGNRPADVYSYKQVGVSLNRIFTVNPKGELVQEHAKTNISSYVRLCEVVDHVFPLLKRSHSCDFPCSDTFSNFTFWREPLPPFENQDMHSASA


Assays:
Assay in all cases: co-IP
[1] = target: T1, ΔM-Lip^xtal-V5 (mouse lipin 1α Δ458-548 with C-terminal V5-His tag) (mouse)
[2] = target: T2, wild-type lipin 1-V5 (full-length mouse lipin 1α with C-terminal V5-His tag) (mouse)
[3] = target: T3, ΔMLip-V5 (mouse lipin 1α Δ458-565 with C-terminal V5-His tag) (mouse)

binding [1]	binding [2]	binding [3]	Binder
binds	binds	binds	lipin 2-BirA*-HA (enzyme, UniProt Q99PI5 1-893) MNYVGQLAGQVLVTVKELYKGINQATLSGCIDVVVVRQQDGSYQCSPFHVRFGKLGVLRSKEKVIDIEINGSAVDLHMKLGDNGEAFFVEETEEEYEKLPAYLATSPIPTEDQFFKHIETPLVKSSGNERPAQSSDVSHTLESEAVFTQSSVKKKKRRRKKCKQDNRKEEQAASPVAEDVGDVGVSSDDEKRAQAARGSSNASLKEEDYKEPSLFHSGDNYPLSDGDWSPLETTYPQAVCPKSDSELEVKPSESLLRSEPHMEWTWGGFPESTKVTKRERYDYHPRTATITPSENTHFRVIPSEDSLIREVEKDATVEDTTCTIVKPKPRALCKQLSDAASTELPESPLEAPQISSLLDADPVPSPSAEAPSEPKPAAKDSPTKKKGVHKRSQHQGPDDIYLDDLKALEPEVAALYFPKSDTDPGSRQWPESDTFSGSQSPQSVGSAAADSGTECLSDSAMDLPDVTLSLCGGLSENGEISKEKFMEHIITYHEFAENPGLIDNPNLVIRIYNRYYNWALAAPMILSLQVFQKSLPKATVESWVKDKMPKKSGRWWFWRKKESMIKQLPETKEGKSEVPPANDLPSNAEEPTSARPAENDTSSDEGSQELEESIKVDPITVETLSHCGTASYKKSLRLSSDQIAKLKLHDGPNDVVFSITTQYQGTCRCAGTIYLWNWNDKVIISDIDGTITKSDALGQILPQLGKDWTHQGIARLYHSINENGYKFLYCSARAIGMADMTRGYLHWVNDKGTILPRGPLMLSPSSLFSAFHREVIEKKPEKFKIECLNDIKNLFAPSRQPFYAAFGNRPNDVYAYTQVGVPDCRIFTVNPKGELIQERTKGNKSSYHRLSELVEHVFPLLSKEQNSAFPCPEFSSFCYWRDPIPDLDLDDLA
binds	binds	binds	lipin 3-BirA*-HA (enzyme, UniProt Q99PI4 1-848) MNYVGQLAETVFGTVKELYRGLNPATLSGGIDVLVVRQRDGSFRCSPFHVRFGKLGVLRSREKVVDIEINGEPVDLHMKLGDSGEAFFVQELDSDEEDVPPRLCTSPIPWGGLSGFPSDSQIGTASEPEGLVITGRRKRRRRRKPRRREEDAVDSSSEELEAGAESELTLLEKPTPESPSAQEAEEPSSQPKDIHPYSDGECTPQANLSSGDLMSPKSDSELELRSLEPSPLRAESHMQWVWGRLPKVAKAERPEFSLILESMAEAICALPEEPSPSSSPSEAGVDTLSPPVLHPGVRADTFHPAVEAHCEETAVDSPLAAPESKETKTQNSRGAGHPPATKSWSWTTPESHTPSGHPQVSRGKGSLKRNQHLGPSDIYLDDLPSLDSENVALYFPKSEYGMGARRWSEPSNQKLLESPNPEHIAECTLDSVDKIELSLCGGLADNRDISLEKFTQHMVSYEDLTKNPGLLDDPNLVVKINEKHYNWAVAAPMILSLQAFQKNLPESTVDKLEKEKMPRKGGRWWFSWRRRDFPAEEHSSQREKAATRKQQGEKTEVLSSDDDVPDSPVILEVPPLPSSTPGYVPTYKKSLRLSSDQIRCLNLNEGANDVVFSVTTQYQGTCRCKATIYLWNWDDKVVISDIDGTITKSDALGHILPQLGKDWTHQGITSLYHKIHLNGYKFLYCSARAIGMADLTKGYLQWVSEHGCGLPKGPILLSPSSLFSALHREVIEKKPEVFKVACLSDIQQLFLPQRQPFHAAFGNRPNDVFAYRQVGLPESRIFTVNPRGELIQELIKSHKSTYQRLGEVVELLFPPVVRGPSTDLASPEYSNLSYWRKPLPYVDFEALA
